According to US7270968B2, “PTH analogs for renal osteodystrophy and related uses” (The General Hospital Corporation, priority 2000, dated 2007):
Some results were stated once for a whole list of compounds, not compound by compound.

System: CPTHR
Experiment: Competitive displacement of 125I-[Tyr34]hPTH(19-84) radioligand in C59 (OC59) cells
Type: binding, mouse
Conditions: 4 h at 15° C.
Experimental: The human PTH peptides shown were tested for their ability to displace the ^125I-[Tyr^34]hPTH(19-84) tracer in C59 cells. Experiments were performed as described in FIG. 1. Results are expressed as the percentage of maximal specific binding observed in the absence of competing ligand and are shown as mean±standard deviation of triplicates in this representative experiment.
OC59 cells were incubated at 15° C. for 4 hr with ^125I[Tyr^34]hPTH(19-84) tracer (150,000 cpn/well) plus the indicated competing human PTH peptides. Results are means of triplicates.
The [Tyr^34]hPTH(19-84) peptide was radioiodinated with Na[^125I](2000 Ci/mmol) by the chloramine-T method and purified by HPLC, as previously described (Inomata, N., et al., Endocrinology 136:4732-4740 (1995)). For binding experiments, cells (100,000 cells/ml) were plated in 24-well dishes and cultured at 33° C. for 7 to 14 days. Confluent monolayers then were washed with 0.5 ml binding buffer [100 mM NaCl, 5 mM KCl, 2 mM CaCl2, 50 mM Tris-HCl (pH 7.8) plus 5% heat-inactivated horse serum] before incubation with ^125I-[Tyr^34]hPTH-(19-84) (100,000-200,000 cpm/well) in 0.5 ml binding buffer for 4 h at 15° C. Receptor number was ascertained by Scatchard analysis, using [Tyr^34]hPTH-(19-84) or hPTH(1-84) as competing ligand. […]

Substance: hPTH(1-84): Recombinant human parathyroid hormone (1-84), the intact hormone
- IC50: 20 to 50 nM
